Article PMC8303269, “ERα36–GPER1 Collaboration Inhibits TLR4/NFκB-Induced Pro-Inflammatory Activity in Breast Cancer Cells” (International Journal of Molecular Sciences, 2021)
These are yes or no findings as the source states them, for the method shown. In cells and extracts the contact can be indirect. Some results given as binding are weak or reduced against the parent protein; the word gives no strength.

Protein sequences, listed by entry. Tags and fused reporters are not part of them.
UniProt Q99527: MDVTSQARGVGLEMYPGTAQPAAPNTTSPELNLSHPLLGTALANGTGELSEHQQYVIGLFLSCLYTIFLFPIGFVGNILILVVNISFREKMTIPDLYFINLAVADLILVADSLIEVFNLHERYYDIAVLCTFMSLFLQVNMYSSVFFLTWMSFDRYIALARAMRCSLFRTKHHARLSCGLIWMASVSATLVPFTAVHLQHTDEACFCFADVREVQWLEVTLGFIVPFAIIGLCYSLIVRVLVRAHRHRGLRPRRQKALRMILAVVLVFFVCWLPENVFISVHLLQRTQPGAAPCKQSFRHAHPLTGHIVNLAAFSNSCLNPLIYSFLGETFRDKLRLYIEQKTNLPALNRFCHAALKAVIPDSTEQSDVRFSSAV

What was measured:
[1] = target: G-protein Estrogen Receptor 1 (GPER1) (human (endogenous in SKBR3)) (UniProt Q99527); experiment: proximity ligation; Duolink In Situ, bright field; fixed SKBR3 cells, endogenous proteins; rabbit polyclonal anti-ERα36 and mouse monoclonal anti-GPER1; untreated cells (baseline, no E2, no LPS)
[2] = target: G-protein Estrogen Receptor 1 (GPER1) (human (endogenous in SKBR3)) (UniProt Q99527); experiment: co-IP; SKBR3 whole-cell extract (hypotonic gentle lysis buffer, NaCl brought to 150 mM); precipitated with mouse monoclonal anti-GPER1 (clone 2F2) on protein G-sepharose, 4 °C; blot for ERα36; cells treated with E2 (10^-7 M) or LPS 100 μg/mL for 3-4 h
[3] = target: G-protein Estrogen Receptor 1 (GPER1) (human (endogenous in SKBR3)) (UniProt Q99527); experiment: proximity ligation; Duolink In Situ, bright field; fixed SKBR3 cells, endogenous proteins; rabbit polyclonal anti-ERα36 and mouse monoclonal anti-GPER1; cells treated with E2 (10^-7 M) and/or LPS

- binding [2]: binds
- binding [3]: binds
B1: estrogen receptor alpha 36 (ERα36) (receptor, human (endogenous in SKBR3), UniProt P03372-4 1-310, looked up)
chain: MAMESAKETRYCAVCNDYASGYHYGVWSCEGCKAFFKRSIQGHNDYMCPATNQCTIDKNRRKSCQACRLRKCYEVGMMKGGIRKDRRGGRMLKHKRQRDDGEGRGEVGSAGDMRAANLWPSPLMIKRSKKNSLALSLTADQMVSALLDAEPPILYSEYDPTRPFSEASMMGLLTNLADRELVHMINWAKRVPGFVDLTLHDQVHLLECAWLEILMIGLVWRSMEHPGKLLFAPNLLLDRNQGKCVEGMVEIFDMLLATSSRFRMMNLQGEEFVCLKSIILLNSGISHVEAKKRILNLHPKIFGNKWFPRV
notes: called estrogen receptor isoform 4 in the NCBI database; Endogenous protein detected with a rabbit polyclonal anti-ERα36 antibody; also called ERa36; estrogen receptor isoform 4; source: endogenous, SKBR3 cells (fixed cells; whole-cell extract)
- binding [1]: no binding (condition: untreated cells (no E2, no LPS))
